Measured values reported in patent US11161888B2, “Method for regulating targeting of Cyclin Y (CCNY) protein to synapses” (KOREA INSTITUTE OF SCIENCE AND TECHNOLOGY, priority 2018, dated 2021).
Substitutions are numbered along the chain they refer to. Numbers in names are those of the source. Some compounds share one wording; it may come from a single statement.

B1: CCNY-C208S-EGFP: cysteine-to-serine mutant of CCNY having low CSS-Palm score (protein)
chain: MGNTTSCCVSSSPKLRRNAHSRLESYRPDTDLSREDTGCNLQHISDRENIDDLNMEFNPSDHPRASTIFLSKSQTDVREKRKSLFINHHPPGQTSRKYSSCSTIFLDDSTVSQPNLKYTIKCVALAIYYHIKNRDPDGRMLLDIFDENLHPLSKSEVPPDYDKHNPEQKQIYRFVRTLFSAAQLTAECAIVTLVYLERLLTYAEIDISPANWKRIVLGAILLASKVWDDQAVWNVDYCQILKDITVEDMNELERQFLELLQFNINVPSSVYAKYYFDLRSLAEANSLSFPLEPLSRERAHKLEAISRLCEDKYKDLRKPMRKRSASADNLILPRWSPAIIS
B2: CCNY-C238S-EGFP: cysteine-to-serine mutant of CCNY having low CSS-Palm score (protein)
chain: B1 chain with S208C, C238S
B3: CCNY-C309S-EGFP: cysteine-to-serine mutant of CCNY having low CSS-Palm score (protein)
chain: B1 chain with S208C, C309S
B4: CCNY-C39S-EGFP: cysteine-to-serine mutant of CCNY having low CSS-Palm score (protein)
chain: B1 chain with C39S, S208C
B5: CCNY-C101S-EGFP: cysteine-to-serine mutant of CCNY having low CSS-Palm score (protein)
chain: B1 chain with C101S, S208C
B6: CCNY-C122S-EGFP: cysteine-to-serine mutant of CCNY having low CSS-Palm score (protein)
chain: B1 chain with C122S, S208C
B7: CCNY-C188S-EGFP: cysteine-to-serine mutant of CCNY having low CSS-Palm score (protein)
chain: B1 chain with C188S, S208C

Test system: hippocampal neurons
Experiment: Subcellular localization imaging of EGFP-tagged CCNY constructs in cultured hippocampal neurons
Format: cell-based, rat
Settings: cysteine-to-serine mutants (FIG. 2C)

| Molecule | cell surface localization of the construct |
| --- | --- |
| B1 | clear surface localization |
| B2 | clear surface localization |
| B3 | clear surface localization |
| B4 | clear surface localization |
| B5 | clear surface localization |
| B6 | clear surface localization |
| B7 | clear surface localization |
